Compound in this test: Cc1cc(ccc1-c1ccccc1)C(=O)N1CCCN(CC1)C(=O)CCl [compound 10]
The test can be described thus: probe-labelled cysteine peptide fold change vs DMSO (competition) (log2 fold change); higher = less target engagement (more negative = stronger competition). The following applies: THP-1, incubation time: 4 h.

Sequences of proteins named here, by UniProt entry; tags and fusion partners are left off. A change or cut given only in a name is not applied to a line headed by its entry.
UniProt Q96KP1: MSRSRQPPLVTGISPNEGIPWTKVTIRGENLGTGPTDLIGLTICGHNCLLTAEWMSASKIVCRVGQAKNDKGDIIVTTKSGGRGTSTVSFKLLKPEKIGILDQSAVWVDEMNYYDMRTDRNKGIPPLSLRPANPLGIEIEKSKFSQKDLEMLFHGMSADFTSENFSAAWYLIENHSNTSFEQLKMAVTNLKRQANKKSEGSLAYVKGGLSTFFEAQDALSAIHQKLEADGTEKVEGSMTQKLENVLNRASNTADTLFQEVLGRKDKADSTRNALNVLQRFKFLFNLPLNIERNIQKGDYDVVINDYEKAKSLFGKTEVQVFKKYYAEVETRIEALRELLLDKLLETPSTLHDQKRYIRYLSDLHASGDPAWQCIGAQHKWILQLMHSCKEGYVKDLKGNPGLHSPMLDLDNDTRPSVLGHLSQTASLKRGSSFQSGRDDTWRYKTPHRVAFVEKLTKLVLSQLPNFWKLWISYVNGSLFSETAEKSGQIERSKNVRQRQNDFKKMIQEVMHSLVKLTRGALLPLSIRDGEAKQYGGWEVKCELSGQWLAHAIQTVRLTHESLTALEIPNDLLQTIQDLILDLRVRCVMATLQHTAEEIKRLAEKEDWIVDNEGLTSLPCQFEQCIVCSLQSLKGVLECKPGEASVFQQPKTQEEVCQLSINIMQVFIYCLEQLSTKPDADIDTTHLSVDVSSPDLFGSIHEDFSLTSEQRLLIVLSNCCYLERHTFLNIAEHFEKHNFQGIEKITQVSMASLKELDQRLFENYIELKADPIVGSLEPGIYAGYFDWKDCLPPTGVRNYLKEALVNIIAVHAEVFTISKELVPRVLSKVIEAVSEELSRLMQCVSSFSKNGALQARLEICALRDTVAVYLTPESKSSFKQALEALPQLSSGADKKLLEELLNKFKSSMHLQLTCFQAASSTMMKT
UniProt P50548: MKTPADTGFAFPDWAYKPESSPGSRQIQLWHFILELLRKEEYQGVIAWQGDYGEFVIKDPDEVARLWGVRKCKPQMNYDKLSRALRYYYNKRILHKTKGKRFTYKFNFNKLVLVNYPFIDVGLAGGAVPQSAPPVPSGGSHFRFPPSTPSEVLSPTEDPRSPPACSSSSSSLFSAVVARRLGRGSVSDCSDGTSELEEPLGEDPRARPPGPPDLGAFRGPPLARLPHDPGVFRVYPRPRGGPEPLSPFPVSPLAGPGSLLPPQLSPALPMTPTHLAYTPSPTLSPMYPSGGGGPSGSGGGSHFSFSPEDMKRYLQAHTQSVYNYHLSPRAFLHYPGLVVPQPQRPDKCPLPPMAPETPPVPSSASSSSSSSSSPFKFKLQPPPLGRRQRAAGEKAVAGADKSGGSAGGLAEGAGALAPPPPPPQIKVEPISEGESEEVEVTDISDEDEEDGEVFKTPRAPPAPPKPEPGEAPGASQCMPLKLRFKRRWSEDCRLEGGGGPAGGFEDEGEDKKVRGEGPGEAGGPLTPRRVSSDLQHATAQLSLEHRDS
UniProt O95571: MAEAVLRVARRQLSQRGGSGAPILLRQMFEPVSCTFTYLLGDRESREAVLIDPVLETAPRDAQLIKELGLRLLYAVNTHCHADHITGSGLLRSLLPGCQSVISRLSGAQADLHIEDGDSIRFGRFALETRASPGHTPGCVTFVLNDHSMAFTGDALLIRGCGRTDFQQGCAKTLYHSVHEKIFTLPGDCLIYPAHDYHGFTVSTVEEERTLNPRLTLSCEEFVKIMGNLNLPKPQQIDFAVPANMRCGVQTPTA
UniProt Q16134: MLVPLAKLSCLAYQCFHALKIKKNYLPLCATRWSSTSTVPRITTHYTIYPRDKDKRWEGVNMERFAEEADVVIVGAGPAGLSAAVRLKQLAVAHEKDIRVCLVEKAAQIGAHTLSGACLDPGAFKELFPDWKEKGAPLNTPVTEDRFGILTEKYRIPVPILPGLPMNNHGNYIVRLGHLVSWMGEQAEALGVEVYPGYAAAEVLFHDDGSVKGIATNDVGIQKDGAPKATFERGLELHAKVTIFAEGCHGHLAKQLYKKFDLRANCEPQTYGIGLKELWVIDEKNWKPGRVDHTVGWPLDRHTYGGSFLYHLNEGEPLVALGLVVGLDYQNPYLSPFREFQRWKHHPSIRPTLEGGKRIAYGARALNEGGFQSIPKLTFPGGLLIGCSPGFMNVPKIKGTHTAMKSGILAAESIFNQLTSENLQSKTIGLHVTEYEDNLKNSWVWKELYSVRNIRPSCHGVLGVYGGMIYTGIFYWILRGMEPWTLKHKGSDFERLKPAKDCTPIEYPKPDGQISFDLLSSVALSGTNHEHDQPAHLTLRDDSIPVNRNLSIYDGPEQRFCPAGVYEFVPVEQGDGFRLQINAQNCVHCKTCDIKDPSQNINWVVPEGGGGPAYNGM
UniProt Q01469, whole entry, looked up: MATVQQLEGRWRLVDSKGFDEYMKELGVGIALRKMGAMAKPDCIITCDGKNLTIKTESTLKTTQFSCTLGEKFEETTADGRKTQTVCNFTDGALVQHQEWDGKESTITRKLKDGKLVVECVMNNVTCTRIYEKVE
UniProt Q06265, whole entry, looked up: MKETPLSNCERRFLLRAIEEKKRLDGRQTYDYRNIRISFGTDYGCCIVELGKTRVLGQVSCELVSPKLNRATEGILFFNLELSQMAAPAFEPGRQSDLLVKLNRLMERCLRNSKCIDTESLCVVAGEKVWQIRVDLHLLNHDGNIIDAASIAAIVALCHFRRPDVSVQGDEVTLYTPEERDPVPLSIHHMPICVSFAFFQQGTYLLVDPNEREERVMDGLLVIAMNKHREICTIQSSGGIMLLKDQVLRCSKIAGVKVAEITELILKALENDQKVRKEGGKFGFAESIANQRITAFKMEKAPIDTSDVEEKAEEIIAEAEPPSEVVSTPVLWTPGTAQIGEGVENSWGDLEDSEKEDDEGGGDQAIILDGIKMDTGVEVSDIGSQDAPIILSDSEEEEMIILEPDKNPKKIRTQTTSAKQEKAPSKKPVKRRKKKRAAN
UniProt P13804: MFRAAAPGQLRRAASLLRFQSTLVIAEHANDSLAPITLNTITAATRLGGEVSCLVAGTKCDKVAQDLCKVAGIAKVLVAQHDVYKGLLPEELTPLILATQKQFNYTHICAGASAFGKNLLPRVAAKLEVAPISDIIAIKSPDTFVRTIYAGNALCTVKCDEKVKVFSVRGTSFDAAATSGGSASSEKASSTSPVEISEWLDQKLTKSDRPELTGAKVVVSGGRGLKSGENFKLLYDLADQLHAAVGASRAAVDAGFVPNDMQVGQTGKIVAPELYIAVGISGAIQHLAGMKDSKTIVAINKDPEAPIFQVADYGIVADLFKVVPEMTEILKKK
UniProt Q9UI08, whole entry: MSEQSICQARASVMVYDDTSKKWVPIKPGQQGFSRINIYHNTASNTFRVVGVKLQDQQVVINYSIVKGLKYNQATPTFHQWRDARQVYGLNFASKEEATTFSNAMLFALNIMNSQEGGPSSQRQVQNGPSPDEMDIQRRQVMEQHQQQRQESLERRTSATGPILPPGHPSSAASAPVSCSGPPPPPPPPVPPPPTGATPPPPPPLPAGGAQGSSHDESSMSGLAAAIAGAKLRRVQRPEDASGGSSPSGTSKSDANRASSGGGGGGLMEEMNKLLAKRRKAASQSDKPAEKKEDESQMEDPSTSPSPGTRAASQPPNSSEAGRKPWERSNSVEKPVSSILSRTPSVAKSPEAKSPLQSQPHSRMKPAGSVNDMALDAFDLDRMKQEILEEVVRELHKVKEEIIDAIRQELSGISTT
UniProt Q96DZ1: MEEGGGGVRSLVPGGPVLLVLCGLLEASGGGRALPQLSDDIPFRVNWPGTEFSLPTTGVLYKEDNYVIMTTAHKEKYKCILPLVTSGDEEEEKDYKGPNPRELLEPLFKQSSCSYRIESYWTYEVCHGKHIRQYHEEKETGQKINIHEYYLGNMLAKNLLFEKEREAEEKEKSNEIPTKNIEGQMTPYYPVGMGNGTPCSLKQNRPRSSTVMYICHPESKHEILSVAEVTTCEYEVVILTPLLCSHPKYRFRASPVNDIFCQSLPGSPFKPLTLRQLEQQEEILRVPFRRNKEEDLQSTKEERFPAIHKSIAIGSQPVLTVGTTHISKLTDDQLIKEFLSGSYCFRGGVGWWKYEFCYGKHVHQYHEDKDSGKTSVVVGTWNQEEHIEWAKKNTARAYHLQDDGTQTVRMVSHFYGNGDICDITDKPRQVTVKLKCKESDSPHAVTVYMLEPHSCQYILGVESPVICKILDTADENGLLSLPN
UniProt P14921: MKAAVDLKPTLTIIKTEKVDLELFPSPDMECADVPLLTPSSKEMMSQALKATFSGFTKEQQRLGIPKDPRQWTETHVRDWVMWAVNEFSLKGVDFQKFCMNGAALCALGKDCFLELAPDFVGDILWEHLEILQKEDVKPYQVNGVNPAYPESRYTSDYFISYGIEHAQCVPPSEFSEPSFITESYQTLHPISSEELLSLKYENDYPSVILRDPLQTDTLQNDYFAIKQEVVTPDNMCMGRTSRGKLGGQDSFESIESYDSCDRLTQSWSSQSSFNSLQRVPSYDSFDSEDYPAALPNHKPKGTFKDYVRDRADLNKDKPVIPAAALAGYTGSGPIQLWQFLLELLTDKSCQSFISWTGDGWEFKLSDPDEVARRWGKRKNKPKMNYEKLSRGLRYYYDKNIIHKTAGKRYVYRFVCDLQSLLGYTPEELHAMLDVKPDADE
UniProt Q8IV48: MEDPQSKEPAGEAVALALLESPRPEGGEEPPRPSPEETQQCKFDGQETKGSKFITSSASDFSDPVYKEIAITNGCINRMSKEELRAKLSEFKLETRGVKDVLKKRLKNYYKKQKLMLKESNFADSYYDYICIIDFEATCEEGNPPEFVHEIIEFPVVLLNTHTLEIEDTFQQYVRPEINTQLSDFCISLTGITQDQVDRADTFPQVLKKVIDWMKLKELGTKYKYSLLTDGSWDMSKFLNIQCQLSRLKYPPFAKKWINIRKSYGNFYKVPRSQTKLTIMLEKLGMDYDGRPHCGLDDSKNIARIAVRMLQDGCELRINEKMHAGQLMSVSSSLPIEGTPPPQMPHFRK
UniProt P16930: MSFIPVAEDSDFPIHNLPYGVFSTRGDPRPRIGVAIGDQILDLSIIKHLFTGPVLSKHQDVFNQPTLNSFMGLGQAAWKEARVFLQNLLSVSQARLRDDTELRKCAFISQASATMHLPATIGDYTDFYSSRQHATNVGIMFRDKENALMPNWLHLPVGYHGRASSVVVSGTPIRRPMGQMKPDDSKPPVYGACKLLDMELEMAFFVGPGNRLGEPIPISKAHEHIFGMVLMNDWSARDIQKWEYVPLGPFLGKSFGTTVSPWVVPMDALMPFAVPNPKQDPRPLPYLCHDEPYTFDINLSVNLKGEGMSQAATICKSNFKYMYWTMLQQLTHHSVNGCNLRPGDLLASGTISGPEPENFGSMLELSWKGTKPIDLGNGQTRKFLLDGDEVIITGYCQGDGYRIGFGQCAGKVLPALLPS
UniProt Q15910, whole entry, looked up: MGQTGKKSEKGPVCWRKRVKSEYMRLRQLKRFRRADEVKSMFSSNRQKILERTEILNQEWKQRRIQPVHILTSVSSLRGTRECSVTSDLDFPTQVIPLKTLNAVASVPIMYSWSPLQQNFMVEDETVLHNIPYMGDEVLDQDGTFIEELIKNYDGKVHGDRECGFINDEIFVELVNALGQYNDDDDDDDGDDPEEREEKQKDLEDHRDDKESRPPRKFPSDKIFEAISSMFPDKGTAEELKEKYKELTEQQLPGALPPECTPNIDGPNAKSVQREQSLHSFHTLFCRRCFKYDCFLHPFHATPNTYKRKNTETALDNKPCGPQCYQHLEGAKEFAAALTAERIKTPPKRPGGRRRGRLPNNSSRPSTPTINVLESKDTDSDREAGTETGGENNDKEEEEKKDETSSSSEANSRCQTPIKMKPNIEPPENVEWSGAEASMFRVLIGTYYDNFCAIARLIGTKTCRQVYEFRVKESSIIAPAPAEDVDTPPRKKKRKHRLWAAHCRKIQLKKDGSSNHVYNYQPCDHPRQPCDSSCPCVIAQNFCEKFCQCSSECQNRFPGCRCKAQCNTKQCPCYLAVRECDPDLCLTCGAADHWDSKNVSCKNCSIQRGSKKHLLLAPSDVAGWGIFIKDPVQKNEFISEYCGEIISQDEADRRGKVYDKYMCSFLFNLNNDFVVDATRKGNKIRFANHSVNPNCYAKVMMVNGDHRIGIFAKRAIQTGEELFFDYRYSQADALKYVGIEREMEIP

Some of the results follow.
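Also: competitive profiling in live THP-1 cells: cysteine peptides tagged with an iodoacetamide desthiobiotin (IA-DTB) probe, intensity after compound treatment relative to DMSO-treated cells.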

As to “EXOC2_Q96KP1_373_YLSDLHASGDPAWQCIGAQHK (UniProt Q96KP1)”, the “probe-labelled cysteine peptide fold change” value is -0.116 (10 µM) and -0.149 (50 µM).
For ERF_P50548_492_WSEDCR (UniProt P50548), in that order: -0.154 and 0.0174.
“ETHE1_O95571_219_LTLSCEEFVK (UniProt O95571)”: the “probe-labelled cysteine peptide fold change” value is, setting by setting: (10 µM) -0.0882; (50 µM) -0.0389.
With “ETFDH_Q16134_248_VTIFAEGCHGHLAK (UniProt Q16134)”, the “probe-labelled cysteine peptide fold change” value by setting is: (10 µM) -0.102; (50 µM) 0.159.
For “FABP5_Q01469_67_TTQFSCTLGEKFEETTADGR (UniProt Q01469)”, the “probe-labelled cysteine peptide fold change” value runs as follows: (10 µM) 0.0444; (50 µM) -0.639.
As for “EXOSC9_Q06265_9_MKETPLSNCER (UniProt Q06265)”, the “probe-labelled cysteine peptide fold change” value (10 µM) is -0.239 and the “probe-labelled cysteine peptide fold change” value (50 µM) was -0.611.
Consider “ETFA_P13804_155_TIYAGNALCTVK (UniProt P13804)”, for which the “probe-labelled cysteine peptide fold change” value by setting is: (10 µM) 0.126; (50 µM) -0.197.
For “EVL_Q9UI08-2_9_ATSEQSICQAR (UniProt Q9UI08)”, in that order: 0.289 and 0.341.
With “FAM120A_Q9NZB2_192_ENGFHGLVAYDSDYALCNIPYYFSAHALK (UniProt Q9NZB2)”, the “probe-labelled cysteine peptide fold change” value is, setting by setting: (10 µM) 0.0489; (50 µM) 0.151.
For “ERLEC1_Q96DZ1_421_MVSHFYGNGDICDITDKPR (UniProt Q96DZ1)”, the “probe-labelled cysteine peptide fold change” value was -0.0283 (10 µM) and 0.0403 (50 µM).
As for “ETS1_P14921_237_QEVVTPDNMCMGR (UniProt P14921)”, the “probe-labelled cysteine peptide fold change” value was -0.103 (10 µM) and -0.276 (50 µM).
Take “ERI1_Q8IV48_294_LGMDYDGRPHCGLDDSK (UniProt Q8IV48)”: the “probe-labelled cysteine peptide fold change” value reads like this: (10 µM) 0.0174; (50 µM) -0.0387.
With “FAH_P16930_193_PMGQMKPDDSKPPVYGACK (UniProt P16930)”, the “probe-labelled cysteine peptide fold change” value is 0.114 (10 µM) and -0.233 (50 µM).
For the target “EZH2_Q15910_580_ECDPDLCLTCGAADHWDSK (UniProt Q15910)”, the “probe-labelled cysteine peptide fold change” value is 0.0735 (10 µM) and -0.174 (50 µM).

For the origin of these results see the supplement of paper PMC12067093, “Discovery and optimisation of a covalent ligand for TRIM25 and its application to targeted protein ubiquitination” (Chemical Science, 2025).
